Source: PubChem BioAssay (EPA / NIEHS)
Values joined by “and” are separate entries in the source; they are usually repeats but may differ in a detail not shown here. Identical values can stand only once. The inconclusive results got no clear call from the source; some entries with a clear call stand among them for comparison. Where the call is inconclusive, the potency comes from a doubtful curve fit. A structure can be active in one record and inactive in another. Active and inactive are the calls of the source. How the source made its calls: active means hit-call score of the fitted dose curve at least 0.9, where 1 is the maximum; inconclusive means response in the unintended direction; inactive means score below 0.9.

Chains of the proteins cited; added tags and fusions are not shown. Lines headed by an entry give the natural chain unless they say otherwise; changes in a name come on top.
UniProt P28702: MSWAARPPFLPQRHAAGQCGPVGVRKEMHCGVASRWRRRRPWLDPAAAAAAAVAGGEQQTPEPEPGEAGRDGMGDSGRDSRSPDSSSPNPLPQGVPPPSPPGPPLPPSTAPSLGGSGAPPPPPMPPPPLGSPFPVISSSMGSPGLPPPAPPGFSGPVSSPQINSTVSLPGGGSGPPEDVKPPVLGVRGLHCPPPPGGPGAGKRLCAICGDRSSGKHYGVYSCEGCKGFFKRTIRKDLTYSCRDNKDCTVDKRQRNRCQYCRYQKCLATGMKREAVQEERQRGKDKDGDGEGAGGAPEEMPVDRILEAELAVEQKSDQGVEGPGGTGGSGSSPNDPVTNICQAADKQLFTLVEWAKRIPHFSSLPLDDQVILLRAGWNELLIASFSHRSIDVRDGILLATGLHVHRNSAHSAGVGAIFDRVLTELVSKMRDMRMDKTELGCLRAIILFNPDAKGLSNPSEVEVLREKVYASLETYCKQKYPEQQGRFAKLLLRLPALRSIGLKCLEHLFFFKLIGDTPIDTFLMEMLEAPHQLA
UniProt P10827: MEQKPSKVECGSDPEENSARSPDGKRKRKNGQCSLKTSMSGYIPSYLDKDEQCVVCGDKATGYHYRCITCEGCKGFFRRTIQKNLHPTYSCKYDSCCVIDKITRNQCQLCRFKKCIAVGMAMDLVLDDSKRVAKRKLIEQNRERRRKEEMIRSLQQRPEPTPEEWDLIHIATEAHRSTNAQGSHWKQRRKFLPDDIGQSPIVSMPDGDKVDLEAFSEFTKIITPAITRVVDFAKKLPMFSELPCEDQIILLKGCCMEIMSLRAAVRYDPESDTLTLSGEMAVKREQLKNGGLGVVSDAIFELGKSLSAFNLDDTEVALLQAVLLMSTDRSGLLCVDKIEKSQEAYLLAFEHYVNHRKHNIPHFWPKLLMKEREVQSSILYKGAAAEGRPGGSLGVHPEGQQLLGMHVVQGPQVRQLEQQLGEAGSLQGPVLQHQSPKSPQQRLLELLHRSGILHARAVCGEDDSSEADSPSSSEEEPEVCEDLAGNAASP
UniProt P11473: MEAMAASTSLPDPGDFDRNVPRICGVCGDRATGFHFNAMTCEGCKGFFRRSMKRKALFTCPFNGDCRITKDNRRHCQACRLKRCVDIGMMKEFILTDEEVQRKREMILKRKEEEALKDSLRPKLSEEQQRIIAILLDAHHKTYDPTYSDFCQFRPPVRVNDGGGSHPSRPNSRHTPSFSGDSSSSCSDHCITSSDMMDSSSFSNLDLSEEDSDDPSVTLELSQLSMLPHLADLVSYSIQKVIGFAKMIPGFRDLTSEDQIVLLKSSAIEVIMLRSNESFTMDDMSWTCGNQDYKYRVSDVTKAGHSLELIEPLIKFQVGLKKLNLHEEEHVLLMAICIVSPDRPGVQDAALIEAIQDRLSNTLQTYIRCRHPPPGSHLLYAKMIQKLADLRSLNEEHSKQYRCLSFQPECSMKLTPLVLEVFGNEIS

Molecular target: human Retinoid X Receptor beta (RXRb), RXRB (gene 6257) (UniProt P28702)
Assay: ATG_RXRb_TRANS: Attagene TRANS-FACTORIAL HepG2 Assay for human Retinoid X Receptor beta (RXRb) (AID 2283013)
Method in brief: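 After a 24 h incubation with test chemical, transfected HepG2 cells carrying NR-Gal4 fusions and GAL4-UAS reporter transcription units yield RNA whose reporter cDNA is FAM-labelled, HpaI-cut and sized by capillary electrophoresis; increases over DMSO are scored.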

SMILES | AC50 | outcome
CC1CCC(=O)C1=O (centres undefined) | active: 59.8 µM | 
CC(C)(C)c1ccc(O)c(O)c1 | active: 38.8 µM and active: 44.5 µM and active: 27.8 µM | inactive
Cc1ccc(S(=O)(=O)O)c(C)c1 | active: 58.6 µM | inactive
O=C1CCCC=CCCCCCCCCCC1 | active: 12.1 µM | 
COCCc1ccc(OCC(O)CNC(C)C)cc1 (centres undefined) | inconclusive: 0.0823 µM | 

Molecular target: human Thyroid Receptor alpha (THRa1), THRA (gene 7067) (UniProt P10827)
Assay: ATG_THRa1_TRANS: Attagene TRANS-FACTORIAL HepG2 Assay for human Thyroid Receptor alpha (THRa1) (AID 2283014)
Method in brief: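 HepG2 cells transiently transfected with multiplexed GAL4-UAS reporter units for exogenous chimeric THRa1-Gal4; reporter mRNA measured 24 h after dosing by RT-PCR, 6-FAM labelling, HpaI digestion and capillary electrophoresis. Gain-of-signal fitted versus DMSO baseline.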

SMILES | AC50 | outcome
CCC1CCCCC1 |  | inactive
COC(=O)C1=C(C)NC(C)=C(C(=O)OCC(C)C)C1c1ccccc1[N+](=O)[O-] (centres undefined) |  | inactive
CCOC(=O)C(C#N)=C(c1ccccc1)c1ccccc1 |  | inactive
O=C(O)c1cc(O)c2ccccc2c1O |  | inactive
CS(=O)(=O)c1ccc(Cl)cc1 | inconclusive: 100 µM | 
CC1CCC(=O)C1=O (centres undefined) | inconclusive: 27.6 µM | 
CC(C)(C)c1ccc(O)c(O)c1 | active: 34.1 µM | 
O=C1CCCC=CCCCCCCCCCC1 | inconclusive: 48.3 µM | 
COCCc1ccc(OCC(O)CNC(C)C)cc1 (centres undefined) | inconclusive: 2.78 µM | 

Molecular target: human Vitamin D Receptor (VDR), VDR (gene 7421) (UniProt P11473)
Assay: ATG_VDR_TRANS: Attagene TRANS-FACTORIAL HepG2 Assay for human Vitamin D Receptor (VDR) (AID 2283022)
Method in brief: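 HepG2 cells were transiently transfected with multiple GAL4-UAS reporter units, so signal reflects exogenous chimeric receptor-Gal4 activity. After 24 h compound exposure, reporter mRNA was measured by RT-PCR, fluorescent labelling and capillary electrophoresis, fitted for gain of signal versus DMSO.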

SMILES | AC50 | outcome
CC=CC(F)(F)C(F)(F)C(F)(F)F |  | inactive
C=Cc1ccc(OC(C)=O)cc1 |  | inactive
CCC1CCCCC1 | inconclusive: 100 µM | 
NC(=O)c1ccc([N+](=O)[O-])cc1Cl | inconclusive: 100 µM | 
COc1ccc(N)c([N+](=O)[O-])c1 |  | inactive
CC(C)(C)c1ccc(O)c(O)c1 | inconclusive: 60.5 µM | 
COCCc1ccc(OCC(O)CNC(C)C)cc1 (centres undefined) | inconclusive: 100 µM | 
